Values quoted from earlier work, collected in patent publication EP0092060A1, “Pharmaceutical products in sustained-release form, and their preparation process” (LABORATORI PROPHIN Industria Chimica Farmaceutica S.p.A., priority 1982, dated 1983).
The name of at least one read-out is uncertain.

Conditions: humans; 60 mm as printed; cited from earlier work

## COc1ccc([C@@H]2Sc3ccccc3N(CCN(C)C)C(=O)[C@@H]2OC(C)=O)cc1 [Diltiazem]
  hematic peak after administration of 60 mm (Cp): 72 µg/mL
